Reference: PubChem BioAssay (NCATS)
The inconclusive results got no clear call from the source; some entries with a clear call stand among them for comparison. Potencies beside an inconclusive call are fits to weak or partial responses and may not hold up. Activity calls are given as the source filed them. Calls follow the shape of the dose curve; as a rule, active = well fitted curve in the direction sought with a large enough effect; inconclusive = small, poorly fitted or top-dose-only effect, or another doubt; inactive = no such curve, though single readings can be large; an effect the other way counts as inactive or inconclusive. Where a SMILES comes first, the peptide text is derived from it. [ ]: non-standard residue; d: D form. The star is where a group is joined. Sta = CC(C)C[C@H](N)[C@@H](O)CC(=O)O; Isovaleryl = CC(C)CC(=O)*

Legend:
[1] = Quantitative High-Throughput drug screen in 47 multiple myeloma cell lines against the NCATS MIPE library collection: JIM1_ECACC cell viability assay (AID 1918964); settings: JIM1 myeloma viability, CellTiter-Glo ATP luminescence, 48 h; viability (% of DMSO): at 45.8 µM (top of the series)
How it was run: (§1)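 Inhibition of cell viability is measured here. Each line was plated at 500 cells per well, treated with MIPE 4.0 drugs, kept 48 hours at 37C, then assayed for ATP content by CellTiter-Glo luminescence.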

[2] = Quantitative High-Throughput drug screen in 47 multiple myeloma cell lines against the NCATS MIPE library collection: JJN3_DSMZ cell viability assay (AID 1918966; also: nearly all actives have a fitted effect of over 50% in size); settings: JJN3 myeloma cells viability, CellTiter-Glo ATP, 48 h; viability, % of DMSO: at 45.8 µM (top of the series)
How it was run: as §1

[3] = Quantitative High-Throughput drug screen in 47 multiple myeloma cell lines against the NCATS MIPE library collection: H1112_PLB cell viability assay (AID 1918967; also: nearly all actives have a fitted effect of over 30% in size); settings: H1112 myeloma cells viability, ATP luminescence, 48 h; viability: at 45.8 µM (top of the series)
How it was run: as §1

[4] = Quantitative High-Throughput drug screen in 47 multiple myeloma cell lines against the NCATS MIPE library collection: KMS27_JCRB cell viability assay (AID 1918970); settings: KMS27 myeloma cells, CellTiter-Glo ATP viability, 48 h; viability (% of DMSO): at 45.8 µM (top of the series); also: nearly all actives have a fitted effect of over 30% in size
How it was run: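 KMS27_JCRB myeloma cells, 500 per well, exposed 48 h at 37 C, 5% CO2 to MIPE 4.0 compounds. Viability from ATP by CellTiter-Glo luminescence, normalized to DMSO (100%) and medium-only (0%) wells.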

[5] = Quantitative High-Throughput drug screen in 47 multiple myeloma cell lines against the NCATS MIPE library collection: KMS12BM_JCRB cell viability assay (AID 1918971); also: nearly all actives have a fitted effect of over 35% in size
How it was run: (§2)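 Relative luminescence from CellTiter-Glo served as the viability signal, referenced to DMSO-treated (100%) and cell-free medium (0%) controls. Treatment lasted 48 hours at 37C with 500 cells per well.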

[6] = Quantitative High-Throughput drug screen in 47 multiple myeloma cell lines against the NCATS MIPE library collection: KMS21BM_JCRB cell viability assay (AID 1918974); settings: ATP luminescence, 48 h; viability: at 45.8 µM (top of the series) unless noted
How it was run: as §1

[7] = Quantitative High-Throughput drug screen in 47 multiple myeloma cell lines against the NCATS MIPE library collection: KMS26_JCRB cell viability assay (AID 1918975); settings: KMS26 myeloma cells viability, CellTiter-Glo ATP, 48 h; viability (% of DMSO): at 45.8 µM (top of the series); also: nearly all actives have a fitted effect of over 45% in size
How it was run: as §2

[8] = Quantitative High-Throughput drug screen in 47 multiple myeloma cell lines against the NCATS MIPE library collection: MOLP8_DSMZ cell viability assay (AID 1918977); settings: MOLP8 myeloma viability, CellTiter-Glo ATP luminescence, 48 h; viability (% of control): at 45.8 µM (top of the series); also: nearly all actives have a fitted effect of over 45% in size
How it was run: (§3)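 Myeloma cells (500/well) treated with MIPE 4.0 compounds for 48 h at 37 °C, 5% CO2. Viability read as ATP via CellTiter-Glo luminescence after 5 min at RT; DMSO-only wells = 100%, media-only = 0% viability.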

[9] = Quantitative High-Throughput drug screen in 47 multiple myeloma cell lines against the NCATS MIPE library collection: LP1_DSMZ cell viability assay (AID 1918982); also: nearly all actives have a fitted effect of over 35% in size
How it was run: as §3

[10] = Quantitative High-Throughput drug screen in 47 multiple myeloma cell lines against the NCATS MIPE library collection: KMS28PE_JCRB cell viability assay (AID 1918983); also: nearly all actives have a fitted effect of over 35% in size
How it was run: as §3

[11] = Quantitative High-Throughput drug screen in 47 multiple myeloma cell lines against the NCATS MIPE library collection: Karpas25_ECACC cell viability assay (AID 1918968; also: nearly all actives have a fitted effect of over 35% in size); settings: Karpas25 myeloma viability, CellTiter-Glo ATP, 48 h; viability (% of control): at 45.8 µM (top of the series)
How it was run: as §1

[12] = Quantitative High-Throughput drug screen in 47 multiple myeloma cell lines against the NCATS MIPE library collection: KMS12PE_JCRB cell viability assay (AID 1918972); settings: KMS12PE myeloma viability, CellTiter-Glo ATP, 48 h; viability: at 45.8 µM (top of the series); also: nearly all actives have a fitted effect of over 30% in size
How it was run: (§4)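 Myeloma cells (500 per well) were exposed to MIPE 4.0 compounds by pin transfer and incubated 48 hours at 37C, 5% CO2. Viability was read as ATP by CellTiter-Glo luminescence, normalised to DMSO (100%) and media-only (0%) wells.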

[13] = Quantitative High-Throughput drug screen in 47 multiple myeloma cell lines against the NCATS MIPE library collection: KMS20_JCRB cell viability assay (AID 1918973); settings: CellTiter-Glo ATP, 48 h; viability (% of DMSO): at 45.8 µM (top of the series); also: nearly all actives have a fitted effect of over 45% in size
How it was run: as §1

[14] = Quantitative High-Throughput drug screen in 47 multiple myeloma cell lines against the NCATS MIPE library collection: NCIH929_DSMZ cell viability assay (AID 1918978); also: nearly all actives have a fitted effect of over 35% in size
How it was run: as §3

[15] = Quantitative High-Throughput drug screen in 47 multiple myeloma cell lines against the NCATS MIPE library collection: OCIMY1_PLB cell viability assay (AID 1918979); also: nearly all actives have a fitted effect of over 35% in size
How it was run: as §3

[16] = Quantitative High-Throughput drug screen in 47 multiple myeloma cell lines against the NCATS MIPE library collection: MM1S_ATCC cell viability assay (AID 1918980); also: nearly all actives have a fitted effect of over 45% in size
How it was run: as §3

[17] = Quantitative High-Throughput drug screen in 47 multiple myeloma cell lines against the NCATS MIPE library collection: MM1R_ATCC cell viability assay (AID 1918981); also: nearly all actives have a fitted effect of over 35% in size
How it was run: as §3

[18] = Quantitative High-Throughput drug screen in 47 multiple myeloma cell lines against the NCATS MIPE library collection: MMM1_PLB cell viability assay (AID 1918976); also: nearly all actives have a fitted effect of over 35% in size
How it was run: as §3

[19] = Quantitative High-Throughput drug screen in 47 multiple myeloma cell lines against the NCATS MIPE library collection: INA6_PLB cell viability assay (AID 1918965; also: nearly all actives have a fitted effect of over 55% in size); settings: INA6 myeloma viability, CellTiter-Glo ATP luminescence, 48 h; viability (% of control): at 45.8 µM (top of the series)
How it was run: as §4
Potency is read from the fitted curve at half-maximal effect.

NS(=O)(=O)c1ccc(Nc2nc(OCC3CCCCC3)c3[nH]cnc3n2)cc1
inconclusive: Potency [2] 26.4 µM [cytotoxic, single point] | Potency [3] 14.8 µM [cytotoxic, partial curve] | Potency [4] 33.2 µM [cytotoxic, single point] | Potency [7] 26.4 µM [cytotoxic, partial curve, poor fit] | Potency [8] 20.9 µM [cytotoxic, partial curve, poor fit] | Potency [9] 33.2 µM [cytotoxic, single point] | Potency [10] 33.2 µM [cytotoxic, single point]
active: Potency [1] 20.9 µM | Potency [5] 26.4 µM | Potency [6] 4.18 µM

CC[C@@H]([C@H](C)O)n1ncn(-c2ccc(N3CCN(c4ccc(OCC5CO[C@@](Cn6cncn6)(c6ccc(F)cc6F)C5)cc4)CC3)cc2)c1=O (some centres undefined)
active: Potency [2] 4.18 µM | Potency [11] 6.62 µM
inactive: Potency [13] | Potency [16]
inconclusive: Potency [1] 0.0418 µM [rising, full curve, poor fit] | Potency [3] 5.26 µM [cytotoxic, partial curve, poor fit] | Potency [4] 4.69 µM [cytotoxic, partial curve, poor fit] | Potency [12] 11.8 µM [cytotoxic, single point] | Potency [6] 37.2 µM [rising, single point] | Potency [7] 18.7 µM [cytotoxic, partial curve] | Potency [8] 41.8 µM [cytotoxic, partial curve, poor fit] | Potency [14] 29.6 µM [cytotoxic, single point] | Potency [15] 20.9 µM [cytotoxic, single point] | Potency [17] 16.6 µM [cytotoxic, partial curve] | Potency [9] 11.8 µM [cytotoxic, partial curve] | Potency [10] 18.7 µM [cytotoxic, partial curve]

CCCCC(C)(C)[C@H](O)C=C[C@H]1[C@H](O)CC(=O)[C@H]1CC=CCCCC(=O)O
active: Potency [11] 18.7 µM
inactive: Potency [1] | Potency [12]
inconclusive: Potency [2] 3.72 µM [cytotoxic, partial curve, poor fit] | Potency [3] 8.33 µM [cytotoxic, partial curve, poor fit] | Potency [13] 1.05 µM [cytotoxic, full curve, poor fit] | Potency [6] 2.64 µM [rising, full curve] | Potency [8] 23.5 µM [cytotoxic, partial curve, poor fit] | Potency [15] 23.5 µM [cytotoxic, single point] | Potency [9] 33.2 µM [cytotoxic, single point] | Potency [10] 2.96 µM [cytotoxic, partial curve, poor fit]

O=c1[nH]c(=O)n([C@H]2C[C@@H](O)[C@@H](CO)O2)cc1C=CBr
inactive: Potency [1] | Potency [2] | Potency [3] | Potency [11] | Potency [13] | Potency [8] | Potency [9]
inconclusive: Potency [5] 5.9 µM [rising, partial curve, poor fit] | Potency [7] 10.5 µM [rising, partial curve, poor fit] | Potency [18] 0.0105 µM [rising, full curve, poor fit] | Potency [14] 37.2 µM [cytotoxic, partial curve, poor fit] | Potency [15] 5.9 µM [rising, full curve, poor fit] | Potency [16] 0.0935 µM [rising, full curve, poor fit] | Potency [17] 0.0037 µM [rising, full curve, poor fit]

CCCNC(=O)Nc1ccc(Oc2ncnc3cc(OC)c(OC)cc23)cc1Cl
inactive: Potency [1] | Potency [2] | Potency [3] | Potency [4] | Potency [8] | Potency [15] | Potency [17] | Potency [9]
inconclusive: Potency [13] 0.0015 µM [cytotoxic, full curve, poor fit] | Potency [7] 2.96 µM [cytotoxic, partial curve, poor fit]
active: Potency [16] 20.9 µM

CCCCOc1ccc(C(=O)Nc2ccc(F)cc2F)cc1
inactive: Potency [1] | Potency [4] | Potency [9]
inconclusive: Potency [19] 0.0033 µM [cytotoxic, full curve, poor fit] | Potency [5] 2.96 µM [rising, partial curve, poor fit] | Potency [12] 0.0015 µM [rising, full curve, poor fit] | Potency [13] 0.372 µM [cytotoxic, full curve, poor fit] | Potency [7] 0.0026 µM [rising, full curve, poor fit] | Potency [18] 0.0118 µM [rising, full curve] | Potency [15] 0.0019 µM [rising, full curve, poor fit] | Potency [16] 0.0019 µM [rising, full curve, poor fit] | Potency [17] 0.0083 µM [rising, full curve, poor fit] | Potency [10] 0.0332 µM [rising, full curve, poor fit]
active: viability [6] 103%

CC(C)CC(=O)N[C@H](C(=O)N[C@H](C(=O)N[C@@H](CC(C)C)[C@@H](O)CC(=O)N[C@@H](C)C(=O)N[C@@H](CC(C)C)[C@@H](O)CC(=O)O)C(C)C)C(C)C (Isovaleryl-VV[Sta]A[Sta]-OH)
inconclusive: Potency [3] 26.4 µM [cytotoxic, single point] | Potency [11] 33.2 µM [cytotoxic, single point] | Potency [5] 0.0469 µM [rising, full curve] | Potency [18] 0.0418 µM [rising, full curve] | Potency [14] 26.4 µM [cytotoxic, single point] | Potency [16] 37.2 µM [cytotoxic, single point]
inactive: Potency [1] | Potency [2] | Potency [7] | Potency [8] | Potency [9] | Potency [10]

O=C(NC1CCOCC1)c1ccc(-c2cc(-c3cn[nH]c3-c3ccccn3)ccn2)cc1
inactive: Potency [19] | Potency [5]
inconclusive: Potency [1] 0.105 µM [cytotoxic, full curve, poor fit] | Potency [11] 10.5 µM [cytotoxic, full curve, poor fit] | Potency [13] 0.0833 µM [cytotoxic, full curve, poor fit] | Potency [6] 18.7 µM [rising, partial curve] | Potency [18] 26.4 µM [cytotoxic, single point] | Potency [8] 20.9 µM [rising, single point] | Potency [16] 2.96 µM [cytotoxic, partial curve, poor fit]

COc1ccc(Cc2ccc(NC(N)=O)cc2)cc1-c1cccc(Cl)c1
inactive: Potency [3] | Potency [7] | Potency [10]
inconclusive: Potency [1] 6.62 µM [cytotoxic, partial curve, poor fit] | Potency [2] 0.001 µM | Potency [11] 14.8 µM [cytotoxic, partial curve, poor fit] | Potency [4] 29.6 µM [cytotoxic, single point] | Potency [5] 23.5 µM [cytotoxic, single point] | Potency [12] 37.2 µM [cytotoxic, single point] | Potency [13] 8.33 µM [cytotoxic, full curve, poor fit] | Potency [16] 33.2 µM [cytotoxic, single point] | Potency [17] 0.0093 µM [rising, full curve, poor fit] | Potency [9] 29.6 µM [cytotoxic, partial curve, poor fit]

COc1nccc(-c2c(-c3ccc(F)cc3)ncn2C2CCC(O)CC2)n1 (centres undefined)
inconclusive: Potency [1] 0.166 µM [cytotoxic, full curve, poor fit] | Potency [2] 13.2 µM [cytotoxic, partial curve, poor fit] | Potency [3] 23.5 µM [cytotoxic, single point] | Potency [11] 26.4 µM [cytotoxic, single point] | Potency [4] 33.2 µM [rising, single point] | Potency [12] 5.9 µM [cytotoxic, partial curve, poor fit] | Potency [13] 4.69 µM [cytotoxic, partial curve, poor fit] | Potency [6] 16.6 µM [cytotoxic, partial curve, poor fit] | Potency [18] 1.87 µM [cytotoxic, partial curve, poor fit] | Potency [8] 0.0264 µM [cytotoxic, full curve, poor fit] | Potency [9] 13.2 µM [cytotoxic, partial curve, poor fit] | Potency [10] 0.526 µM [cytotoxic, partial curve, poor fit]
inactive: Potency [15]
active: Potency [17] 18.7 µM

CN(C)Cc1cccc(N=C(c2ccccc2)c2c(O)[nH]c3cc(C(=O)N(C)C)ccc23)c1
active: Potency [12] 16.6 µM | Potency [6] 9.35 µM | Potency [16] 16.6 µM | Potency [10] 18.7 µM
inactive: Potency [15]
inconclusive: Potency [1] 2.96 µM [cytotoxic, partial curve] | Potency [2] 33.2 µM [cytotoxic, single point] | Potency [3] 14.8 µM [cytotoxic, partial curve] | Potency [11] 18.7 µM [cytotoxic, partial curve] | Potency [5] 33.2 µM [cytotoxic, single point] | Potency [13] 11.8 µM [cytotoxic, partial curve, poor fit] | Potency [7] 0.0209 µM [rising, full curve, poor fit] | Potency [18] 0.0083 µM [rising, full curve, poor fit] | Potency [8] 13.2 µM [cytotoxic, partial curve, poor fit] | Potency [9] 10.5 µM [cytotoxic, partial curve, poor fit]
